Assay results taken from US20090137652A1, “METHODS FOR NEUROPROTECTION” (priority 2005, published 2009).
Some of these results come from one statement about several compounds together.

Tested on: rats subjected to li-pilo SE
Experiment: Quantification of cell densities 14 days after lithium-pilocarpine SE (Example 2)
Format: in vivo, rat
Details: DZP and TC30, 60 and 90 groups together, 14 days after SE
Experimental: All rats received lithium chloride (3 meq/kg, i.p., Sigma, St Louis, Mo., U.S.A.) and about 20 h later, all animals received also methylscopolamine bromide (1 mg/kg, s.c., Sigma) that was administered to limit the peripheral effects of the convulsant. SE was induced by injecting pilocarpine hydrochloride (25 mg/kg, s.c., Sigma) 30 min after methylscopolamine. The effects of increasing doses of TC (RWJ) were studied in 5 groups of rats. […] The control group received vehicle instead of pilocarpine and TC.
At the moment, neuronal counting is still in progress in the second group of animals studied for epileptogenesis and long-term counting and the data concerning that part of the study will not be included in the present report. For neuronal counting, animals were deeply anesthetized with […] pentobarbital (Dolethal®, Vetoquinol, Lure, France). Brains were then removed and frozen. Serial 20 μm slices were cut in a cryostat, air-dried during several days before thionine staining. […] The grid of counting was placed on a well defined area of the cerebral structure of interest and counting was carried out with a microscopic enlargement of 200- or 400-fold defined for each single cerebral structure. […] The number of cells obtained in the 12 counted fields in each cerebral structure was averaged. […] Cells with small cell bodies were considered as glial cells and were not counted. […]

In the case of `NC(=O)OC[C@@H](O)c1ccccc1Cl` [Formula 7], the “cell loss (drop out), hilus of the dentate gyrus” value is reported as 61-66%.
